According to PubChem BioAssay AID1508600 (Functional Genomics Laboratory (NCATS/FGL), 2020):
Among all 53,000 sequences or so, about 3,700 (7%) were called active.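 The calls were made as follows: active = gene knockdowns whose robust z-score for IL-1 alpha signal is at least 2 or at most -2, so actives lie on both sides; inactive = the rest.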 The list shows a part of the results.

Assay: Components of the Cytosolic LPS Sensing Pathway: Gene Identification via Genome-wide siRNA Screen;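 also: robust z of the log signal after scaling to non-targeting control siRNA wells of the plate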
Settings: RAW264.7 macrophages, IL-1a HTRF, actives lie on both sides, screened at 100 nM (by protocol), cells primed 5 h with Pam3CSK4 first
How it was run: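 Mouse macrophage line RAW264.7 is transfected with siRNA (100 nM final), grown 48h, primed with TLR ligand Pam3CSK4 5 h and given intracellular LipidA 24 h. IL-1a in supernatant is read by HTRF and viability by luminescence.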

Question: With GGUAAACUGACCCAAGCUGTT against Zbtb26 as the sequence, how does the z-score read?
Answer: Its z-score is inactive: -0.205.

Question: Which z-score does the source give for GCAGCUUGAGUUCUCGAAUTT against BC049715 here?
Answer: The z-score was inactive: 0.971.

Question: Which z-score does the source give for GGAAUAGAGAUAUCAGUAATT against Olfr866 here?
Answer: Its z-score is inactive: 0.814.

Question: For GCAUUACACUUAACUGACGTT against Zfp652, which z-score is on record?
Answer: The z-score was inactive: -1.28.

Question: Which z-score does the source give for GCACCUCCAGAAUGUUUUUTT against Vmn1r16 here?
Answer: The z-score was inactive: 1.9.

Question: Which z-score does the source give for GGAACUUUCUAAAGUGUUUTT against Med10 here?
Answer: The z-score was inactive: 0.627.

Question: For GGACAUGUUUCCUGACCUGTT against Zbtb7c, which z-score is on record?
Answer: The z-score was inactive: -0.289.

Question: Which z-score does the source give for GGUUGGGAGAAGAAACUUCTT against Tbc1d19 here?
Answer: The z-score was inactive: -0.959.

Question: For CGAGCAUAAAAGUUAUGUGTT against Chaf1b, which z-score is on record?
Answer: Its z-score is inactive: 1.07.

Question: Which z-score does the source give for GGAACAAAAACUGGUGCGCTT against Emilin2 here?
Answer: The z-score was active: 2.07.

Question: Which z-score does the source give for ACCUGUGAUGGUGGAGACUTT against AF067061 here?
Answer: Its z-score is inactive: 0.577.

Question: For GGAGAAGAAGAACUACUGCTT against Vwc2, which z-score is on record?
Answer: Its z-score is inactive: -0.982.

Question: Which z-score does the source give for GGGUCAUGGACAAUAGAAATT against Olfr52 here?
Answer: The z-score was inactive: -0.833.

Question: Which z-score does the source give for GCAAGACGGUGAUUGUAACTT against Pck2 here?
Answer: The z-score was inactive: -0.243.

Question: Which z-score does the source give for GGUCCUUGAUGAGUGUAAUTT against Erp29 here?
Answer: Its z-score is inactive: 0.379.

Question: With GGACAAAUUCUCCUUUGACTT against Fkbp4 as the sequence, how does the z-score read?
Answer: The z-score was inactive: -0.0663.

Question: With GGACCAGUUAAAGUCACCATT against Atp4b as the sequence, how does the z-score read?
Answer: The z-score was inactive: -1.81.

Question: For GGCAAUGAACUGAGUUGCUTT against Ugt2a2, which z-score is on record?
Answer: Its z-score is inactive: -0.207.

Question: For GGACAUUCGGCCCUAUUGCTT against Got1, which z-score is on record?
Answer: Its z-score is inactive: -0.31.

Question: With GGUGAUCUUAGCAAUGUUUTT against Pdk2 as the sequence, how does the z-score read?
Answer: Its z-score is inactive: 0.936.

Question: Which z-score does the source give for GGAGUAGACAGAGGAUGGCTT against Ctsll3 here?
Answer: Its z-score is inactive: -0.133.

Question: With GGAAGUGGUCAUAUUCACGTT against Jag2 as the sequence, how does the z-score read?
Answer: Its z-score is inactive: -0.714.

Question: With GGCCAUGGUUCUAUAGGACTT against Zbtb37 as the sequence, how does the z-score read?
Answer: The z-score was inactive: 0.764.

Question: With GGAAAACUCAUGAUCACUUTT against Robo1 as the sequence, how does the z-score read?
Answer: The z-score was inactive: 0.308.

Question: For GCCUCUGGACUACUAUAGATT against Gale, which z-score is on record?
Answer: The z-score was inactive: -1.01.

Question: With GGAGAAUCAAAGAAGAAGATT against Xpc as the sequence, how does the z-score read?
Answer: The z-score was inactive: -0.661.

Question: For GGUGGGAGUCAUUUUCCGUTT against P2rx1, which z-score is on record?
Answer: Its z-score is inactive: -0.58.

Question: Which z-score does the source give for GGCUUUGUAUAUCUUAUCGTT against Fryl here?
Answer: Its z-score is inactive: -0.057.

Question: With GGGUGAAAUUCUGUUGAAGTT against Irx3os as the sequence, how does the z-score read?
Answer: Its z-score is inactive: 0.546.

Question: For GCCACGAUUUGCCUUAUUUTT against Litaf, which z-score is on record?
Answer: Its z-score is inactive: -0.426.

Question: Which z-score does the source give for GGACAGACGAAUUGAAAACTT against Stambpl1 here?
Answer: Its z-score is inactive: -0.658.

Question: With GCUCUACAUGUAGACCUGCTT against Morn2 as the sequence, how does the z-score read?
Answer: Its z-score is inactive: 1.12.

Question: Which z-score does the source give for GCCAUUCACUUAAUUCAGUTT against H2ac8 here?
Answer: The z-score was inactive: -1.32.

Question: With GCUGAAAAUGACCCGGAAGTT against Cftr as the sequence, how does the z-score read?
Answer: Its z-score is inactive: 1.01.

Question: With CCUUAGCAAUGGGAUUGAUTT against Rasl12 as the sequence, how does the z-score read?
Answer: Its z-score is inactive: 0.448.

Question: For GGGAGAAUUAAACCUAAAGTT against Hus1, which z-score is on record?
Answer: The z-score was inactive: 1.79.

Question: Which z-score does the source give for GGGAAAACCGAAUAAAGAUTT against Ren2 here?
Answer: Its z-score is inactive: -1.51.

Question: With CGUAACUUUGUUGAACUACTT against Fbxo48 as the sequence, how does the z-score read?
Answer: The z-score was inactive: 0.739.

Question: Which z-score does the source give for GGGCUUUGGACAUCUCCUATT against Serpina3c here?
Answer: The z-score was inactive: -1.98.

Question: For GGACUUUCGUGAGAGAUUUTT against Fpr2, which z-score is on record?
Answer: The z-score was inactive: 1.16.

Question: For CCGUCUUCGAUGAGGCAAUTT against Rac2, which z-score is on record?
Answer: The z-score was inactive: 0.154.

Question: For GCCUGGAAUGCAGAAUCGATT against Vwa2, which z-score is on record?
Answer: Its z-score is inactive: -0.0276.

Question: Which z-score does the source give for CCAAGUCCAUAGUUGAACUTT against Bnc1 here?
Answer: Its z-score is inactive: 1.17.

Question: For GGAGGAACCUACCUUUGACTT against Tbc1d17, which z-score is on record?
Answer: The z-score was inactive: 0.0756.

Question: With GGAGCAUUCAAAUUACAUCTT against Ccni as the sequence, how does the z-score read?
Answer: Its z-score is active: 4.62.

Question: Which z-score does the source give for GCUAUGAGGCUUUGUUCUUTT against Ttc27 here?
Answer: The z-score was inactive: 0.305.

Question: Which z-score does the source give for GGAGACAGAUCCUCUCAAUTT against Map4k2 here?
Answer: Its z-score is inactive: 0.302.

Question: With GCCUAUCAGAAGCUGUUAATT against Eif2ak2 as the sequence, how does the z-score read?
Answer: Its z-score is active: 3.59.

Question: For GGAAGAAAAAGCCGGGAAGTT against Fbxo3, which z-score is on record?
Answer: The z-score was inactive: -0.0865.

Question: With GCAGGUUCACGACACCAACTT against Sv2a as the sequence, how does the z-score read?
Answer: The z-score was inactive: -1.35.

Question: For GGACGGUUACAAUGUGUACTT against Fgf21, which z-score is on record?
Answer: The z-score was inactive: 0.505.

Question: With GCAAAACUUCGGAUAGUCATT against Gak as the sequence, how does the z-score read?
Answer: Its z-score is inactive: 0.382.

Question: With GCUGUAGAGAUCAAUAGAGTT against Abcd2 as the sequence, how does the z-score read?
Answer: Its z-score is inactive: -0.45.

Question: With GGAGCAAUUGAGAAAGAAGTT against Moap1 as the sequence, how does the z-score read?
Answer: The z-score was inactive: 0.508.

Question: For CGAGUAGUGAUGCUGUUGATT against Dhx33, which z-score is on record?
Answer: The z-score was inactive: -1.65.

Question: For GCUGGUGGAUCAGAUUGAGTT against Larp6, which z-score is on record?
Answer: Its z-score is inactive: 0.0914.

Question: For GGCGCAACUCCAGAUACACTT against Ccdc150, which z-score is on record?
Answer: The z-score was inactive: 2.

Question: Which z-score does the source give for GGUGCUAAAUUAUCCCUAUTT against Tspear here?
Answer: The z-score was inactive: 0.969.

Question: For GCCUUCACGUGUGAAGAAUTT against Dis3, which z-score is on record?
Answer: Its z-score is inactive: -1.47.

Question: Which z-score does the source give for GGACAUUUUCUUUGGAAAATT against Ccnl1 here?
Answer: Its z-score is inactive: 0.194.

Question: Which z-score does the source give for GCCAUGAUUAUUUACCGUGTT against Lrrk2 here?
Answer: Its z-score is inactive: 0.363.

Question: With CCUAUUAAGCUCAACAAGCTT against Olfm5 as the sequence, how does the z-score read?
Answer: Its z-score is inactive: 0.212.

Question: Which z-score does the source give for CCAGUGCUAGCUUCUACGATT against Dusp3 here?
Answer: Its z-score is inactive: -0.735.

Question: Which z-score does the source give for GGAGAUACGCCGGAGACUATT against Olfr645 here?
Answer: The z-score was inactive: 0.181.

Question: With GGAGAGAAAGGAAAGACCGTT against Zdhhc20 as the sequence, how does the z-score read?
Answer: Its z-score is inactive: 0.863.

Question: For CCGGUUGAGUUCACAGAAUTT against Atad3aos, which z-score is on record?
Answer: Its z-score is active: -2.44.

Question: Which z-score does the source give for GGACAUUGACACUUCCCUGTT against P2rx5 here?
Answer: Its z-score is inactive: -1.85.

Question: Which z-score does the source give for GGAAGUAGAUUUGAAGUUGTT against Btbd35f1 here?
Answer: Its z-score is inactive: 0.256.

Question: Which z-score does the source give for GGAACAUCUACAUUGUGGCTT against Tspan14 here?
Answer: The z-score was inactive: 0.402.
